Some of the results follow.
Experiments:
Assay in all cases: glycan array binding signal (z-score within array); higher = stronger binding
Conditions in all cases: glycan notation: IUPAC condensed, linker removed
[1] = molecular target: Gal(b1-3)GlcNAc(a1-6)Gal(b1-4)GlcNAc
Summary of the method: (§1)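 Columns mapping to the same glycan were averaged after glycan names were converted to IUPAC-condensed notation. The data come from 3228 arrays in the Consortium for Functional Glycomics database, limited to those with an available protein sequence. Binding is reported as a within-array Z-score averaged across arrays of one protein sequence and across linkers.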

[2] = molecular target: Gal(b1-3)GlcNAc(b1-2)Man(a1-3)[Gal(b1-3)GlcNAc(b1-2)Man(a1-6)]Man(b1-4)GlcNAc(b1-4)GlcNAc
Summary of the method: as §1

[3] = molecular target: Gal(b1-3)GlcNAc(b1-2)Man(a1-3)[Gal(b1-3)GlcNAc(b1-2)Man(a1-6)]Man(b1-4)GlcNAc(b1-4)[Fuc(a1-6)]GlcNAc
Summary of the method: as §1

[4] = molecular target: Gal(b1-3)GlcNAc(b1-2)[Gal(b1-3)GlcNAc(b1-6)]Man(a1-6)[Gal(b1-3)GlcNAc(b1-2)Man(a1-3)]Man(b1-4)GlcNAc(b1-4)GlcNAc
Summary of the method: as §1

[5] = molecular target: Gal(b1-3)GlcNAc(b1-3)Gal(b1-3)GlcNAc
Summary of the method: as §1

[6] = molecular target: Gal(b1-3)GlcNAc(b1-3)Gal(b1-4)Glc
Summary of the method: as §1

[7] = molecular target: Gal(b1-3)GlcNAc(b1-3)Gal(b1-4)GlcNAc
Summary of the method: as §1

[8] = molecular target: Gal(b1-3)GlcNAc(b1-3)Gal(b1-4)GlcNAc(b1-6)[Gal(b1-3)GlcNAc(b1-3)]Gal(b1-4)Glc
Summary of the method: as §1

[9] = molecular target: Gal(b1-3)GlcNAc(b1-3)Gal(b1-4)[Fuc(a1-3)]GlcNAc(b1-6)[Gal(b1-3)GlcNAc(b1-3)]Gal(b1-4)Glc
Summary of the method: as §1

[10] = molecular target: Gal(b1-3)GlcNAc(b1-3)GalNAc
Summary of the method: as §1

[11] = molecular target: Gal(b1-3)GlcNAc(b1-6)Gal(b1-4)GlcNAc
Summary of the method: as §1

[12] = molecular target: Gal(b1-3)[Fuc(a1-4)]GlcNAc
Summary of the method: as §1

[13] = molecular target: Gal(b1-3)[Fuc(a1-4)]GlcNAc(b1-2)Man(a1-3)[Gal(b1-3)[Fuc(a1-4)]GlcNAc(b1-2)Man(a1-6)]Man(b1-4)GlcNAc(b1-4)GlcNAc
Summary of the method: as §1

[14] = molecular target: Gal(b1-3)[Fuc(a1-4)]GlcNAc(b1-2)Man(a1-3)[Gal(b1-3)[Fuc(a1-4)]GlcNAc(b1-2)Man(a1-6)]Man(b1-4)GlcNAc(b1-4)[Fuc(a1-6)]GlcNAc
Summary of the method: as §1

[15] = molecular target: Gal(b1-3)[Fuc(a1-4)]GlcNAc(b1-3)Gal(b1-3)[Fuc(a1-4)]GlcNAc
Summary of the method: as §1

[16] = molecular target: Gal(b1-3)[Fuc(a1-4)]GlcNAc(b1-3)Gal(b1-4)GlcNAc
Summary of the method: as §1

[17] = molecular target: Gal(b1-3)[Fuc(a1-4)]GlcNAc(b1-3)Gal(b1-4)[Fuc(a1-3)]GlcNAc
Summary of the method: as §1

[18] = molecular target: Gal(b1-3)[GlcNAc(b1-6)]GalNAc
Summary of the method: as §1

[19] = molecular target: Gal(b1-3)[Neu5Ac(a2-6)]GalNAc
Summary of the method: as §1

[20] = molecular target: Gal(b1-3)[Neu5Ac(a2-6)]GlcNAc(b1-6)Gal(b1-4)Glc
Summary of the method: as §1

[21] = molecular target: Gal(b1-3)[Neu5Ac(b2-6)]GalNAc
Summary of the method: as §1

[22] = molecular target: Gal(b1-4)Gal
Summary of the method: as §1

[23] = molecular target: Gal(b1-4)GalNAc(a1-3)[Fuc(a1-2)]Gal(b1-4)GlcNAc
Summary of the method: as §1

[24] = molecular target: Gal(b1-4)GalNAc(b1-3)[Fuc(a1-2)]Gal(b1-4)GlcNAc
Summary of the method: as §1

[25] = molecular target: Gal(b1-4)Glc
Summary of the method: as §1

[26] = molecular target: Gal(b1-4)Glc6S
Summary of the method: as §1

[27] = molecular target: Gal(b1-4)GlcNAc
Summary of the method: as §1

[28] = molecular target: Gal(b1-4)GlcNAc(a1-6)Gal(b1-4)GlcNAc
Summary of the method: as §1

[29] = molecular target: Gal(b1-4)GlcNAc(b1-2)Man
Summary of the method: as §1

[30] = molecular target: Gal(b1-4)GlcNAc(b1-2)Man(a1-3)Man(b1-4)GlcNAc(b1-4)GlcNAc
Summary of the method: as §1

B1: RetS (Pseudomonas aeruginosa), Q9HUV7 (protein)
chain: MVRLRIAIGLLVSFLLLLLGPMSPAVADDAGVSSVPLQTTATTPSANQNWRLLRDESAQLRIADVLQRKEQFRPLAKRSFIFPASPQAVWLQVQLPAQKVPSWLWIFAPRVQYLDYYLVQDGQLVRDQHTGESRPFQERPLPSRSYLFSLPVDGKPMTLYVRMTSNHPLMAWFDQIDEAGLVGLEKPAYAFGMLLGGMLLLLMYNLIRFAYSRSASSLWLAAVHAALAVCAAANLGLVAFWLPGLKFNQSLTADLGALGAAVSLLWFACSFFRGTAESRLNRLLQGEALLILAVGAIIAFTQQLWFSWLIYLLVILSSLSVPLIAAWHWYRGYQPARLIVAGMIVFNAGFMVFLPVLFGTKQLDPGWLVLGVFSFATLAGLVLSVSLTERQRLIQQLNLQQRTSEAAHTAELQTKAEFLAKISHEIRTPMNGVLGMTELLLGTPLSAKQRDYVQTIHSAGNELLTLINEILDISKLESGQIELDEVQFDLNALIEDCLDIFRVKAEQQRIELISFTQPQVPRVIGGDPTRLRQVVLSLLDNAFKQTEEGEILLVVALDDQGETPRLRIAVQDSGHPFDAKEREALLTAELHSGDFLSASKLGSHLGLIIARQLVRLMGGEFGIQSGSSQGTTLSLTLPLDPQQLENPTADLDGPLQGARLLVVDDNETCRKVLVQQCSGWGLNVSAVSSGKEALAQLRTKAHLREYFDVVLLDQDMPGMTGMQLAAKIKEDPNLNHDILLIMLTGISNAPSKIIARNAGIKRILAKPVAGYTLKATLADELAQRGVSGVTNYLQPAKEAQAPSLPSDFRILVAEDNSISTKVIRGMLNKLNLQPDTASNGQEALSAMKATQYDLVLMDCEMPVLDGFSATEQLRAWEAHEQRPHTPVVALTAHILSEHKERARLVGMDGHMAKPVELSQLRELIAYWVGERDRRRQGDALPS
glycan array binding signal (z-score) [1]: -0.237 | glycan array binding signal (z-score) [2]: -0.523 | glycan array binding signal (z-score) [3]: 1.34 | glycan array binding signal (z-score) [4]: -0.323 | glycan array binding signal (z-score) [5]: -0.583 | glycan array binding signal (z-score) [6]: 2.45 | glycan array binding signal (z-score) [7]: -0.887 | glycan array binding signal (z-score) [8]: -0.357 | glycan array binding signal (z-score) [9]: -0.104 | glycan array binding signal (z-score) [10]: 0.207 | glycan array binding signal (z-score) [11]: -0.132 | glycan array binding signal (z-score) [12]: -0.542 | glycan array binding signal (z-score) [13]: 0.24 | glycan array binding signal (z-score) [14]: -0.397 | glycan array binding signal (z-score) [15]: 0.772 | glycan array binding signal (z-score) [16]: 0.071 | glycan array binding signal (z-score) [17]: -0.621 | glycan array binding signal (z-score) [18]: -0.436 | glycan array binding signal (z-score) [19]: -0.419 | glycan array binding signal (z-score) [20]: 0.022 | glycan array binding signal (z-score) [21]: -0.352 | glycan array binding signal (z-score) [22]: 3.18 | glycan array binding signal (z-score) [23]: 0.473 | glycan array binding signal (z-score) [24]: -0.338 | glycan array binding signal (z-score) [25]: -0.481 | glycan array binding signal (z-score) [26]: 0.168 | glycan array binding signal (z-score) [27]: -0.317 | glycan array binding signal (z-score) [28]: 0.457 | glycan array binding signal (z-score) [29]: 0.048 | glycan array binding signal (z-score) [30]: -0.97
